# Test results from PubChem BioAssay AID1347076 (National Center for Advancing Translational Sciences (NCATS), 2019).
# Out of some 400,000 compounds screened, about 13,000 (3.2%) were called active. This list was built around the results that the source calls inconclusive (neither active nor inactive); the mix of calls is not that of the screen. Calls follow the shape of the dose curve; as a rule, active = well fitted cell-killing curve with a large enough effect; inconclusive = small, poorly fitted or top-dose-only effect, or effect the other way; inactive = flat fitted curve, though single readings scatter. Potencies beside an inconclusive call are fits to weak or partial responses and may not hold up.
# Test: qHTS assay for MDR1-selective chemotherapeutics: Primary screen using the drug-selected MDR subline cells KB-V1; also: nearly all actives have a fitted effect of over 60% in size
# Details: KB-V1 MDR cells viability, CellTiter-Glo, 72 h; activity change, negative = cytotoxicity: at 46.1 µM (top of the series)
# In short: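 Drug-selected KB-V1 cells, grown in DMEM lacking phenol red with 10% FBS, receive compound titrations; after three days at 37 degrees C, surviving cell ATP is quantified by CellTiter-Glo luminescence and responses normalized and curve-fitted.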
# % is scaled to controls: 0 for no effect and ±100 for the full control effect; potency is read from the fitted curve at half-maximal effect.
SMILES,Potency,"activity change, negative = cytotoxicity"
CCCCC(=O)Nc1ccc(C(=O)Nc2cccnc2)cc1,"inconclusive: 18.4 µM [cytotoxic, single point]",–
COc1ccc(/C=N/S(=O)(=O)c2ccc(C)cc2)cc1,–,inconclusive: 34.6%
Cc1ccc(OCc2n[nH]c(=S)n2-c2ccccc2)cc1C,–,inactive: -21.1%
COc1cccc(NC(=O)CN(C)C(=O)c2ccc3ccccc3c2)c1,active: 20.6 µM,–
CCOC1=C2[C@H]([C@H]3C(=O)N(c4ccccc4)C(=O)[C@H]3C1)[C@@H](c1ccccc1)N(S(=O)(=O)c1ccc(C)cc1)[C@H]2c1ccccc1,–,inactive: 9.91%
CC(C)(C)NC(=O)Cn1c(=O)c(=O)n(Cc2ccccc2)c2ccc(Cl)cc21,active: 20.6 µM,–
COc1ccccc1C(=O)NC(CCSC)C(=O)N1CCN(C/C=C/c2ccccc2)CC1 (configuration not stated),"inconclusive: 1.46 µM [cytotoxic, full curve]",–
O=c1cc(CN2CC(O)Cc3ccc4ccccc4c32)nc2sccn12 (configuration not stated),"inconclusive: 23.1 µM [cytotoxic, single point]",–
CC(C)Oc1ccc(CNCCC2(C(C)C)CCOC(C)(C)C2)cc1 (configuration not stated),"inconclusive: 20.6 µM [cytotoxic, single point]",–
Cc1nc2c(C)cccn2c1C(=O)c1ccccc1,active: 25.9 µM,–
CCOC(=O)c1nn(C23CC4CC(CC(C4)C2)C3)c2c1C(=O)N(c1ccc(C)cc1)C2=O,"inconclusive: 32.6 µM [rising, single point]",–
O=C(Nc1sc2c(c1CN1CCOCC1)CCC2)c1ccc(F)cc1,active: 2.06 µM,–
CN(CC(=O)Nc1c(Cl)cccc1Cl)C(=O)c1ccccc1-c1nc2ccccc2s1,active: 8.2 µM,–
CCOC(=O)c1c(CC(C)C)csc1/N=C/C1C(=O)CCCC1=O,–,inactive: -0.0673%
CCOC(=O)Cc1csc(/N=C/c2c(O)n(-c3ccc(C)c(C)c3)c(=O)c3ccccc23)n1,active: 10.3 µM,–
CCOC(=O)N/N=C\c1ccc(OC/C=C/c2ccccc2)c(OC)c1,"inconclusive: 16.4 µM [cytotoxic, partial curve, poor fit]",–
O=C(Nc1nnc(C2=COCCO2)o1)c1ccc([N+](=O)[O-])cc1,"inconclusive: 16.4 µM [cytotoxic, single point]",–
COCCCNc1nc(N)c([N+](=O)[O-])c(Nc2ccccc2OC)n1,–,inactive: -28.7%
COc1nc(OC)nc(N2CCC(C(=O)NC3CCCCCC3)CC2)n1,active: 10.3 µM,–
c1cnn(-c2nc(N3CCOCC3)nc(N3CCOCC3)n2)c1,"inconclusive: 14.1 µM [cytotoxic, single point]",–
CSc1ccc(/C=C2\NC(=O)NC2=O)cc1,"inconclusive: 29.1 µM [cytotoxic, single point]",–
CCOC(=O)CNC(=O)CNC(=O)c1ccc(OC)cc1,"inconclusive: 20.6 µM [rising, single point]",–
O=C(Nc1ccc2c(c1)ncn2C1CCCCC1)c1ccco1,"inconclusive: 11.6 µM [cytotoxic, partial curve, poor fit]",–
O=C(/C=C\c1cn(-c2ccccc2)nc1-c1ccccc1)Nc1nccs1,"inconclusive: 18.4 µM [cytotoxic, partial curve]",–

SMILES,Potency,"activity change, negative = cytotoxicity"
COc1ccc(N(C(=O)COc2ccccc2OC)S(=O)(=O)c2ccc(Cl)cc2)cc1,–,inactive: -5.36%
O=C(Nc1cccnc1)c1cc(-c2cccc(Br)c2)nc2ccccc12,active: 10.3 µM,–
CN(c1ccccc1)S(=O)(=O)c1ccc(NC(=S)NC(=O)C2CC2)cc1,"inconclusive: 14.6 µM [cytotoxic, partial curve]",–
O=C(NCc1ccccc1)C(c1cccs1)N(Cc1cccs1)C(=O)c1cnccn1 (configuration not stated),active: 2.59 µM,–
O=C(c1ccccc1)n1nc(-c2ccco2)nc1NCc1ccccc1Cl,"inconclusive: 16.4 µM [rising, single point]",–
Cc1ccc(C(=O)N/N=C/C=C/c2ccccc2)cc1,–,inactive: -6.65%
CCSCCCn1[nH]c2ccccc2c1=O,"inconclusive: 16.4 µM [cytotoxic, partial curve, poor fit]",–
Cc1nonc1NCn1nnc2ccccc21,"inconclusive: 23.1 µM [rising, partial curve, poor fit]",–
CCC(=O)N1CCN(c2ccc(NC(=S)NC(=O)c3cc4ccccc4o3)cc2)CC1,"inconclusive: 4.11 µM [cytotoxic, partial curve, poor fit]",–
Cc1noc(C)c1S(=O)(=O)N1CCCC(C(=O)Nc2ccc(C(C)C)cc2)C1 (configuration not stated),–,inactive: -5.77%
COCCCNC(=O)COc1ccc(Br)cc1Cl,active: 20.6 µM,–
CSc1nc(N2CCOCC2)c2c(c1C#N)CC(C)(C)OC2,active: 9.2 µM,–
COc1ccc(-c2cc(C(=O)Nc3ccc(F)cc3F)no2)cc1,"inconclusive: 18.4 µM [rising, partial curve, poor fit]",–
CC(C)(C)NC(=O)Cn1ccc(=N)c2ccccc21,"inconclusive: 18.4 µM [rising, single point]",–
COc1ccccc1N1CCN(C2CCCN(S(=O)(=O)c3ccccc3)C2)CC1 (configuration not stated),"inconclusive: 3.66 µM [cytotoxic, full curve]",–
CCOc1ccc(CCNC(=O)C2CCC(CNS(=O)(=O)c3ccc(Cl)cc3)CC2)cc1OCC (configuration not stated),–,inactive: -0.823%
c1c2c(cc3sc(N4CCCCC4)nc13)OCO2,"inconclusive: 0.146 µM [cytotoxic, full curve]",–
CCc1cccc(CC)c1-n1c(SCC(=O)N2CCCc3ccccc32)nc(O)cc1=O,–,inactive: 9.16%
CC1(C)O[C@@H]2C[C@H]3[C@@H]4C[C@H](F)C5=CC(=O)C=C[C@]5(C)[C@@]4(F)[C@@H](O)C[C@]3(C)[C@]2(C(=O)CO)O1,–,inactive: -8.92%
CC1=CC(C)(C)N2C(=O)C3(N=C(N)NC(Nc4ccccc4)=N3)c3cc(C)cc1c32 (configuration not stated),"inconclusive: 11.6 µM [rising, partial curve]",–
O=C(CCc1ccc(Oc2cc([N+](=O)[O-])cc([N+](=O)[O-])c2)cc1)Nc1cccc(Cl)c1,"inconclusive: 23.1 µM [cytotoxic, single point]",–
COc1ccccc1C1/C(=C(\O)c2ccc3c(c2)OCCO3)C(=O)C(=O)N1Cc1cccnc1 (configuration not stated),"inconclusive: 0.0052 µM [cytotoxic, full curve, poor fit]",–
CC1=C2CCCC[C@@]23C2C(=O)N(C)C(=O)[C@@H]2ON3OC1 (some centres not stated),–,inactive: -9.3%
CC(C)CN1CC(C)C(=O)NC1=S (configuration not stated),–,inactive: -1.14%

# Arranged by molar mass (smallest number first): 3 of the compounds above.
SMILES,Potency,"activity change, negative = cytotoxicity"
Cc1nonc1NCn1nnc2ccccc21,"inconclusive: 23.1 µM [rising, partial curve, poor fit]",–
CSc1nc(N2CCOCC2)c2c(c1C#N)CC(C)(C)OC2,active: 9.2 µM,–
O=C(c1ccccc1)n1nc(-c2ccco2)nc1NCc1ccccc1Cl,"inconclusive: 16.4 µM [rising, single point]",–

# Following part.

SMILES,Potency,"activity change, negative = cytotoxicity"
CCOCCCNC(=O)C(NC(=O)c1ccc2c(c1)OCO2)c1ccc(Cl)cc1 (configuration not stated),–,inactive: -25.3%
COc1ccc(S(=O)(=O)Nc2cccc(-c3ccc(N4CCCC4)nn3)c2)cc1OC,"inconclusive: 10.3 µM [cytotoxic, partial curve, poor fit]",–
O=C(Cn1c2[n+](c3ccc(C(F)(F)F)cc31)CCCCC2)c1ccc2c(c1)OCCO2,–,inactive: 27%
Nc1ccc(S(=O)(=O)NN=CC=Cc2ccccc2[N+](=O)[O-])cc1,–,inactive: 0.785%
CSc1ccc2nnc(-c3cccc(F)c3)n2n1,active: 13 µM,–
CC[C@H]1O[C@H](C)CC2=C1C(=O)OC(C)(C)O2,"inconclusive: 20.6 µM [rising, single point]",–
O=C(c1ccc(Cl)cc1)C1CCCN(C(=O)/C=C/c2ccccn2)C1 (configuration not stated),"inconclusive: 23.1 µM [cytotoxic, partial curve]",–
O=C(CN1C(=O)S/C(=C\c2ccccc2)C1=O)Nc1cc([N+](=O)[O-])ccc1O,"inconclusive: 18.4 µM [rising, single point]",–
CCN(c1ccccc1)S(=O)(=O)c1ccc2[nH]cc(C(=O)NCc3ccc(C)cc3)c(=O)c2c1,–,inactive: 5.26%
N#CC1=C(N)Oc2ccc3ccccc3c2C1c1cccnc1 (configuration not stated),active: 5.17 µM,–
N#Cc1c(Nc2cccc(F)c2)sc(C(=O)c2ccc(Cl)cc2)c1N,–,inactive: -13.5%
CCc1cc(CNC(=O)C2CCC(=O)N(Cc3cccc(F)c3)C2)on1 (configuration not stated),"inconclusive: 10.3 µM [rising, partial curve, poor fit]",–
COCCNC(=O)Cn1c(=O)oc2cc(S(=O)(=O)N3CC(C)CC(C)C3)ccc21 (configuration not stated),–,inconclusive: -6.98%
CCN(CC)c1ccc(S(=O)(=O)N2CCOCC2)cc1NC(=O)CN1CCc2ccccc2C1,"inconclusive: 6.51 µM [cytotoxic, partial curve]",–
COc1ccccc1C1CCN(C(=O)c2ccco2)CC1,"inconclusive: 18.4 µM [cytotoxic, partial curve, poor fit]",–
COc1ccc(C(=O)/C=C/Nc2ccc(C)cn2)cc1OC,"inconclusive: 20.6 µM [cytotoxic, single point]",–
OCCNCc1cc(Br)ccc1OCc1ccccc1Cl,"inconclusive: 29.1 µM [cytotoxic, single point]",–
Cc1c(-c2ccc(Cl)cc2)c(=O)oc2c(CN3CCCC3)c(O)ccc12,"inconclusive: 5.8 µM [cytotoxic, full curve]",–
O=C(N[C@@H](Cc1ccccc1)C(=O)NC1CCCCCC1)c1ccco1,active: 5.17 µM,–
CCOC(=O)C1CCCN(c2c(NCc3ccco3)c(=O)c2=O)C1 (configuration not stated),"inconclusive: 23.1 µM [rising, single point]",–
CCOc1ccc(C(C)NC(=O)c2cccc(F)c2)cc1 (configuration not stated),"inconclusive: 16.4 µM [cytotoxic, single point]",–
O=c1[nH]c(=O)n(Cc2ccccc2)c2nc(-c3ccco3)cc(C(F)(F)F)c12,"inconclusive: 14.6 µM [cytotoxic, partial curve]",–
Cc1ccc(OCC(=O)Nc2ccc3nc(Nc4cccc(Cl)c4)cc(C)c3c2)cc1,"inconclusive: 29.1 µM [rising, single point]",–
O=C(CSc1nnc(-c2ccco2)c(-c2ccco2)n1)Nc1ccccc1,–,inactive: 0%
